Results as given in publication PMC9344466.
No constants are given. Whether binding was seen depends on the method and setting. In cells and extracts the contact can be indirect. Some entries that bind do so weakly or less than the wild type. Sequences can lack the tags named with a protein.

Protein sequences, listed by entry. Tags and fused reporters are not part of them.
UniProt Q13263: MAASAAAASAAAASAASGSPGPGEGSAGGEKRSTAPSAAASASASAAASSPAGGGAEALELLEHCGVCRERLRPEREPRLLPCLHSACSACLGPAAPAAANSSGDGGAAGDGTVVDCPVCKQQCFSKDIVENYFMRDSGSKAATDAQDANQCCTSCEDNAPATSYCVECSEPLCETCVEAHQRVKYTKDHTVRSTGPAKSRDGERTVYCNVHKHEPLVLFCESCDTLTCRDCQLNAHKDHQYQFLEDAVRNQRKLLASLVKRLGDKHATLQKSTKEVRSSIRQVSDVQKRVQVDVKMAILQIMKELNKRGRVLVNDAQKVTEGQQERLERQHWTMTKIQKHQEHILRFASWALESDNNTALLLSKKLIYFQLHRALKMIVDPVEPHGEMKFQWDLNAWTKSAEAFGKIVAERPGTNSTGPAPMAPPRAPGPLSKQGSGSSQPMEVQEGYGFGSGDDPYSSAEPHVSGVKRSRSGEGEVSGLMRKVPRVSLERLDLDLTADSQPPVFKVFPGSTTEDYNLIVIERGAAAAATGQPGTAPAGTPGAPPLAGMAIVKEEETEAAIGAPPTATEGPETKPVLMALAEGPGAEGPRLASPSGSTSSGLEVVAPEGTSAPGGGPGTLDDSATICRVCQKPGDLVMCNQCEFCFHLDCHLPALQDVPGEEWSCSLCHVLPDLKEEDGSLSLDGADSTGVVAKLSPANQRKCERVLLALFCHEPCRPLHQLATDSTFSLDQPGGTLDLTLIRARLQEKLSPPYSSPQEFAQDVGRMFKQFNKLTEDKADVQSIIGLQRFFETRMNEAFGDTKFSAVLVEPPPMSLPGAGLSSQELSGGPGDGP

How the values were obtained:
[1] = target: T1, GST-tagged MAGE-C2 MHD domain (residues 140-350) (human) (UniProt Q9UBF1); experiment: pull-down; competition: MDM2 first bound to GST-MAGE-C2 MHD on GST beads, then TRIM28 added in a gradient; beads immunoblotted with MDM2 antibodies (Figure 4A)
T1 sequence: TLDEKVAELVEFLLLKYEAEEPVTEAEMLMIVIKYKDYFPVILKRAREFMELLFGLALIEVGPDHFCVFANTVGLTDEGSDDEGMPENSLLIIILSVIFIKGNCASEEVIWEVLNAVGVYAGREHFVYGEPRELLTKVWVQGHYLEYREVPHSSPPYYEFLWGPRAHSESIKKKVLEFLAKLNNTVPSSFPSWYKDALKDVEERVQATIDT

[2] = target: T1, GST-tagged MAGE-C2 MHD domain (residues 140-350) (human); experiment: pull-down; reverse competition: MDM2 tested for displacing TRIM28 from MAGE-C2 MHD (Supplementary Figure S3)

TRIM28 (from UniProt Q13263 1-835) (enzyme)
binding [1]: binds
binding [2]: binds
